From patent US8227414B2 ([…].R.L., priority 2005, dated 2012)
Some entries share one result that the patent states for a list of compounds.

Protein sequences, listed by entry. Tags and fused reporters are not part of them. Lines headed by an entry give the natural chain unless they say otherwise; changes in a name come on top.
UniProt P41146: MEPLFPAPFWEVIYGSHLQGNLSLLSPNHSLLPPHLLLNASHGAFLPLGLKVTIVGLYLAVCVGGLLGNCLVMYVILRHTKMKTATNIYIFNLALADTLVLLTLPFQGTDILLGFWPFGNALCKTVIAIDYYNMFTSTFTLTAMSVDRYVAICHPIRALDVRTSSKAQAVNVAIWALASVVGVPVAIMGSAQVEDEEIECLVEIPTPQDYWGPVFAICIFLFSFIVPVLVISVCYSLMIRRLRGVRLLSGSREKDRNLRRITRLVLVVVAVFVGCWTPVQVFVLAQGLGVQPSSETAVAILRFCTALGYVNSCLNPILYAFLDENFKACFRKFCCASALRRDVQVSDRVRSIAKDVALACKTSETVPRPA

Target: T1, human recombinant NOP receptor (Homo sapiens, UniProt P41146)
T1 construct: expressed in transfected cells; host or cells: CHO cells (CHOhNOP), membranes
Assay: Receptor binding, displacement of tritiated N/OFQ on CHOhNOP membranes
Settings: transfected CHO cell membranes

Structure (SMILES): C[C@H](NC(=O)[C@H](CO)NC(=O)[C@H](CCCCN)NC(=O)[C@H](CCCNC(=N)N)NC(=O)C(C)(C)NC(=O)CNC(=O)[C@@H](NC(=O)[C@H](Cc1ccc(F)cc1)NC(=O)CNC(=O)CNC(=O)[C@@H](N)Cc1ccccc1)[C@@H](C)O)C(=O)N[C@@H](CCCNC(=N)N)C(=O)N[C@@H](CCCCN)C(=O)N[C@@H](CCCNC(=N)N)C(=O)N[C@@H](CCCCN)C(=O)N[C@@H](CC(N)=O)C(=O)N[C@@H](CCC(N)=O)C(N)=O [UFP-112, [(pF)Phe^4,Aib^7,Arg^14,Lys^15]N/OFQ-NH2]
- Selectivity for the NOP receptor than MOP, KOP and DOP receptors: > 100 fold
